These are yes or no findings as the source states them, for the method shown. In cells and extracts the contact can be indirect. Some results given as binding are weak or reduced against the parent protein; the word gives no strength.
Target: T1, FKBP3 (human (endogenous in C11)) (UniProt Q00688)
T1 sequence: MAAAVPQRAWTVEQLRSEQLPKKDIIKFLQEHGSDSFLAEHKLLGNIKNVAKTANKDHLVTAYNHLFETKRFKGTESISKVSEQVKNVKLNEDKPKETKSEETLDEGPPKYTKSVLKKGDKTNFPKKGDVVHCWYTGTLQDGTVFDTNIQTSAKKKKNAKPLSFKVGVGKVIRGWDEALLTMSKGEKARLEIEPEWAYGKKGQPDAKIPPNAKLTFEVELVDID
Assay: co-IP; immunoprecipitation from C11 cell lysates with anti-FKBP3 antibody, Western blotting with anti-YY1, anti-HDAC1 or anti-HDAC2 antibodies

Chains of the proteins cited; added tags and fusions are not shown.
UniProt Q92769: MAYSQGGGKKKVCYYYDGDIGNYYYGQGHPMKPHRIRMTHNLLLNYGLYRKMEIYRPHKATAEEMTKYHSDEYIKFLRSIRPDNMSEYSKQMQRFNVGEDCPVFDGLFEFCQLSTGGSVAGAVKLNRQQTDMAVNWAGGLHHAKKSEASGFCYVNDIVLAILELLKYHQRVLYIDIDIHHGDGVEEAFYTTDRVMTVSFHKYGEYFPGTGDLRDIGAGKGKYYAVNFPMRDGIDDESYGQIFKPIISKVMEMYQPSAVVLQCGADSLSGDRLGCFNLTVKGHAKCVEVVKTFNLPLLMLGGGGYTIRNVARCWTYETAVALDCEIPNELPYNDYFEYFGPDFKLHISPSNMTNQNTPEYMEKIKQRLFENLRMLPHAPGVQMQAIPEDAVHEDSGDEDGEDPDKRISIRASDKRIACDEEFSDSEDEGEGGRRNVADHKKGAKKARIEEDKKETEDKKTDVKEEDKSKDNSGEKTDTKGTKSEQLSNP
UniProt Q13547: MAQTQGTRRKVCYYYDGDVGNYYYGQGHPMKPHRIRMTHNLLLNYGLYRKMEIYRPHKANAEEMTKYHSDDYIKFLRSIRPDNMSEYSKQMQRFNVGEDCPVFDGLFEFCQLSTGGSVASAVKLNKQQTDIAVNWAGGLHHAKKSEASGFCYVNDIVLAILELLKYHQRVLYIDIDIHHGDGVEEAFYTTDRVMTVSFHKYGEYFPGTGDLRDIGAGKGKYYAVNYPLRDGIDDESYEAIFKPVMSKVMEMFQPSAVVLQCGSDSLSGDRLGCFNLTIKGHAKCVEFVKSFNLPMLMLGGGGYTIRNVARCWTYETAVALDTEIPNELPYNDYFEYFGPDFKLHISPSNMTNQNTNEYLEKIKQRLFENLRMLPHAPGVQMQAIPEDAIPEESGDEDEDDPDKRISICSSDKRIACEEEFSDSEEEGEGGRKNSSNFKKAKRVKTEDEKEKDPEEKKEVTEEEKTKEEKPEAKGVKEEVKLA

binding | Substance
binds | histone deacetylase 2 (from UniProt Q92769 1-488) (enzyme)
binds | histone deacetylase 1 (from UniProt Q13547 1-482) (enzyme)

Source: paper PMC8406261
